Our source for the EC50 values is patent publication US20110046090A1, “MODULATION OF NEUROGENESIS WITH GABA AGENTS AND GABA ANALOGS” (BrainCells Inc., priority 2005, published 2011).

Bounds are passed on as bounds.

What is called EC50 is the midpoint of the concentration-response curve.

For the assay, the system named is human neural stem cells (hNSCs). The assay can be described thus: neuronal differentiation of cultured human neural stem cells (TUJ-1 staining), agents alone and in combination.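 Also: cells kept in mitogen-free test media, with growth-factor-free basal medium as the negative control.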 The settings on record: Neural stem cell, read-out: EC50 for neuronal differentiation, agent alone, compound run individually, % of neuronal positive control, basal media subtracted.

In the case of `CN1CCN(C2=Nc3cc(Cl)ccc3Nc3ccccc32)CC1` [clozapine, clozapin], the EC50 was greater than 100 µM.
